Residue numbers refer to the chain shown, from its start. No constants are given. Whether binding was seen depends on the method and setting. Binding seen in cells or lysates may run through a third protein. Some binding calls cover weakened binding; strength is not graded here.

In assay [1] the target is T1, scc3-K372A-6HA (budding yeast) (UniProt P40541).
T1 sequence: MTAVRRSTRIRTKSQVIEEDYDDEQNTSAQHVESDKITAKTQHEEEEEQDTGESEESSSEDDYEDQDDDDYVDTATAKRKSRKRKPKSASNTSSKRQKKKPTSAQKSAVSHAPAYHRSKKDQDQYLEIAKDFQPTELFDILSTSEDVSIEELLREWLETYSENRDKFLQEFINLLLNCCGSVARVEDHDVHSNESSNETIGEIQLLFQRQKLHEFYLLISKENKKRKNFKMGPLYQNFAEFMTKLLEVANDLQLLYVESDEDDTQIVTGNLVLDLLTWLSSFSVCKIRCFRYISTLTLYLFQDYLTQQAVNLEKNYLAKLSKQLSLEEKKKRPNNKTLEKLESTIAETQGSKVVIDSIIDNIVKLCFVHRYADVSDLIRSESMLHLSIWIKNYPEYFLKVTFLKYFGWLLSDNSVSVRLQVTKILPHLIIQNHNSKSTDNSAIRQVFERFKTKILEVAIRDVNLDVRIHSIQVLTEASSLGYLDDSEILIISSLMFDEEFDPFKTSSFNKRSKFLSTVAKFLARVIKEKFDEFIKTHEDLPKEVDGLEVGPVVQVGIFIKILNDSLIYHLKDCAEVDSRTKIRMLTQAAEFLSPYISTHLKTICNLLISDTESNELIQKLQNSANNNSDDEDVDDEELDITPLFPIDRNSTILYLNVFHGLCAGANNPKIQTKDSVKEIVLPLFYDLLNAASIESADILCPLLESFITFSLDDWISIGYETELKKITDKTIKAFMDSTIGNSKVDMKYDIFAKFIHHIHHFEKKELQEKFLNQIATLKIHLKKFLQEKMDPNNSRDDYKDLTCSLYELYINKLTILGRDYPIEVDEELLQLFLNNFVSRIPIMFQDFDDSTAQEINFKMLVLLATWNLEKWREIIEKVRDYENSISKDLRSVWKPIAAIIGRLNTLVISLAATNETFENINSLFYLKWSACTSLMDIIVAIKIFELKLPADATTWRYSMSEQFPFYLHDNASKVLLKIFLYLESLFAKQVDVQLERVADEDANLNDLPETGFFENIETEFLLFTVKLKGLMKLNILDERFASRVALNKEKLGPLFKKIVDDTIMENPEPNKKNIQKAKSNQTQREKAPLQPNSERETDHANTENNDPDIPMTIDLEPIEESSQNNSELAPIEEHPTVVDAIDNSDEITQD
The assay can be described thus: co-IP; anti-HA immunoprecipitation of Scc3-6HA (wild type or mutant) from yeast lysates, mid-log cells; IPH150 or IPH50 buffer (50 mM Tris pH 8.0, 150/50 mM NaCl, 5 mM EDTA, 0.5% NP-40, 1 mM DTT), 4°C, protein A/G agarose, Western blot of partners; also in wpl1Δ strains and after depletion of Pds5-3V5-AID with 1 mM IAA. (Immunoblotting shows a protein as a band on a membrane.)

Assay [2] concerns the target T2, scc3-Y371A-6HA (budding yeast) (UniProt P40541).
T2 sequence: T1 sequence with Y371A, A372K
Described as above.

B1: Mcd1 (protein, UniProt Q12158 1-566)
chain: MVTENPQRLTVLRLATNKGPLAQIWLASNMSNIPRGSVIQTHIAESAKEIAKASGCDDESGDNEYITLRTSGELLQGIVRVYSKQATFLLTDIKDTLTKISMLFKTSQKMTSTVNRLNTVTRVHQLMLEDAVTEREVLVTPGLEFLDDTTIPVGLMAQENSMERKVQGAAPWDTSLEVGRRFSPDEDFEHNNLSSMNLDFDIEEGPITSKSWEEGTRQSSRNFDTHENYIQDDDFPLDDAGTIGWDLGITEKNDQNNDDDDNSVEQGRRLGESIMSEEPTDFGFDLDIEKEAPAGNIDTITDAMTESQPKQTGTRRNSKLLNTKSIQIDEETENSESIASSNTYKEERSNNLLTPQPTNFTTKRLWSEITESMSYLPDPILKNFLSYESLKKRKIHNGREGSIEEPELNVSLNLTDDVISNAGTNDNSFNELTDNMSDFVPIDAGLNEAPFPEENIIDAKTRNEQTTIQTEKVRPTPGEVASKAIVQMAKILRKELSEEKEVIFTDVLKSQANTEPENITKREASRGFFDILSLATEGCIGLSQTEAFGNIKIDAKPALFERFINA
B1: the binding entry in assay [1] and in assay [2] was “binds” each time.
